PubChem BioAssay AID504774, Drosophila RNAi Screening Center, 2011

Test: 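Knock-downs that shift viability of MMS-exposed cells relative to untreated ones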 (primary screen)
Cells: Drosophila Kc167 cells
Reagents: long dsRNA against Drosophila genes, about 0.25 µg dsRNA per well
Time to read-out: about 6 days: 3 days knock-down, then 3 days with or without MMS
Treatment: methyl methanesulphonate 0.004% (w/v) for 3 days after knock-down
Read-out: 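Viability in wells given MMS, read as ATP luminescence, normalised by quantiles plate by plate and averaged across replicates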
Direction: mean viability with MMS: higher = more surviving cells after MMS
In all, the deposit lists about 23,000 reagents; below is an unselected part of those that have a named target and a result. 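Values are quantile-normalised luminescence on an arbitrary scale; higher means more cells surviving MMS.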 Further read-outs or replicates are left out here.

What did the screen give for Nup62 [DRSC06970]?
mean viability with MMS: 3.18e6

How did the screen score ena [DRSC05779]?
mean viability with MMS: 3.38e6

Which result is listed for ena [DRSC07610]?
mean viability with MMS: 3.66e6

With CG43999 [DRSC14605], what was measured?
mean viability with MMS: 3.62e6

What is on record for CG12643 [DRSC17849]?
mean viability with MMS: 3.57e6

How did the screen score ben [DRSC20310]?
mean viability with MMS: 3.73e6

What did the screen give for ben [DRSC21261]?
mean viability with MMS: 3.54e6

With ERp60 [DRSC07309], what does the deposit list?
mean viability with MMS: 3.64e6

Which result is listed for SCaMC [DRSC10293]?
mean viability with MMS: 3.35e6

What is on record for SCaMC [DRSC10415]?
mean viability with MMS: 3.28e6

What is on record for CG3492 [DRSC04373]?
mean viability with MMS: 3.67e6

What did the screen give for CG14445 [DRSC17938]?
mean viability with MMS: 3.45e6

With CG8323 [DRSC07149], what does the deposit list?
mean viability with MMS: 3.36e6

For Tet [DRSC08550], what was measured?
mean viability with MMS: 3.25e6

For CG42699 [DRSC18076], what does the deposit list?
mean viability with MMS: 3.63e6

With CG42699 [DRSC18341], what was measured?
mean viability with MMS: 3.49e6

What is on record for Con [DRSC08652]?
mean viability with MMS: 3.39e6

For CG31089 [DRSC15934], what was measured?
mean viability with MMS: 3.66e6

How did the screen score Vps16B [DRSC15304]?
mean viability with MMS: 3.58e6

What did the screen give for dome [DRSC19583]?
mean viability with MMS: 3.35e6

What did the screen give for CG30286 [DRSC04070]?
mean viability with MMS: 3.58e6

With CG6329 [DRSC06976], what does the deposit list?
mean viability with MMS: 3.67e6

For CG32834 [DRSC21929], what was measured?
mean viability with MMS: 3.53e6

Which result is listed for Vajk2 [DRSC02540]?
mean viability with MMS: 3.62e6

Ordered by “mean viability with MMS” (ascending): 2 of the entries above
SCaMC [DRSC10293]: mean viability with MMS = 3.35e6
ERp60 [DRSC07309]: mean viability with MMS = 3.64e6
